Some of these results come from one statement about several compounds together. Some compounds share one range, which may span the group rather than tell each member. Where a SMILES comes first, the peptide text is derived from it. Where no end group is shown, it is not given here. [ ]: non-standard residue; d: D form. NMeW = CN[C@@H](Cc1c[nH]c2ccccc12)C(=O)O
System: human red blood cells
Test: Hemolysis assay
Assay type: cell-based
Details: comparison among the peptides of Table 4
Experimental: 1-3 mL human blood was centrifuged at 3000 rpm, 4° C. for 10 minutes. The supernatant was discarded. The remaining was washed with cold phosphate buffer saline (PBS) and centrifuged at 3000 rpm, 4° C. for 1 minute. The supernatant was discarded. The remaining red blood cells were washed and diluted as 2% red blood cell solution with cold PBS.
A mixture of 100 μL red blood cell solution and 100 μL PBS was served as a negative control. A mixture of 100 μL red blood cells solution and 100 μL 0.2% Triton X-100 was served as a positive control. The solution of peptide 1, peptide 2, peptide 3, peptide 5, and peptide 6 were respectively mixed with red blood cell solution with the same volume and incubated at 37° C. for 1 hour. After incubation, the mixture was centrifuged at 3000 rpm, 4° C. for 10 minutes. Each of the supernatant was collected to measure the absorbance at wavelength of 405 nm by an ELISA plate reader. The hemolysis of each peptide was calculated according to the following equation, wherein Abs represents the absorbance. [(Abspeptide−AbsPBS)/(AbsTriton X-100−AbsPBS)]×100

Row | Molecule | Hemolysis, comparison in words
1 | CC(C)C[C@H](NC(=O)[C@H](Cc1c[nH]c2ccccc12)NC(=O)[C@@H](N)CCCCN)C(=O)N[C@@H](CCCNC(=N)N)C(=O)N[C@@H](CCCNC(=N)N)C(=O)N[C@H](C(=O)N(C)[C@@H](Cc1c[nH]c2ccccc12)C(=O)N[C@@H](CCCNC(=N)N)C(=O)N[C@@H](Cc1c[nH]c2ccccc12)C(=O)N[C@@H](Cc1c[nH]c2ccccc12)C(=O)N[C@@H](CCCNC(=N)N)C(N)=O)C(C)C [peptide 1, KWLRRVMeWRWWR] (H-KWLRRV[NMeW]RWWR-NH2) | obviously lower than that of the peptide 5 and 6
2 | KWLRWVRRRWW-NH2 [peptide 3, KWLRWVRRRWW] | obviously lower than that of the peptide 5 and 6

— patent publication US9802982B2, “Peptide and uses thereof” (Tunghai University, priority 2014, dated 2017)
